“And” between values parts separate entries of the source, which are not always exact repeats. Equal values may be shown once. The inconclusive results got no clear call from the source; some entries with a clear call stand among them for comparison. For part of these data: Potencies of inconclusive entries are doubtful fits and often do not repeat. The source made the active and inactive calls. Unless noted, calls follow the shape of the dose curve; as a rule, active = well fitted curve in the direction sought with a large enough effect; inconclusive = small, poorly fitted or top-dose-only effect, or another doubt; inactive = no such curve, though single readings can be large; an effect the other way counts as inactive or inconclusive. Bridge positions count the residues as written; N and C are the ends. Square brackets hold non-standard residues; d marks the D form. Peptide text beside a SMILES is read from it. Orn = NCCC[C@H](N)C(=O)O; Mpa = O=C(O)CCS
What was measured:
[1] = Stat Signaling Pathway (AID 446; active = well fitted curve in either direction with a large enough effect, not every such curve was filed as active; inconclusive = small, poorly fitted or top-dose-only effect, or another doubt;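 also: ME-180 cervical cancer cells given 40 pM IL-6 alongside compound; SIE-controlled beta-lactamase reporter measured as 460/530 nm FRET emission ratio; % is scaled to controls: 0 for no effect and ±100 for the full control effect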); settings: ME-180 SIE beta-lactamase reporter, IL-6 stimulated, 5 h; at 38 µM (top of the series)
Method in brief: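 Screening format detects activators and inhibitors alike: ME-180 SIE-bla cells stimulated at 40 pM IL-6 for 5 hrs with compound, then dual-emission beta-lactamase read at 405 nm excitation.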

By UniProt entry, the sequences of proteins in these tests, tags left out. Where a name states a change or a piece, a line headed by the entry shows the natural chain unless it says otherwise.
UniProt P08482: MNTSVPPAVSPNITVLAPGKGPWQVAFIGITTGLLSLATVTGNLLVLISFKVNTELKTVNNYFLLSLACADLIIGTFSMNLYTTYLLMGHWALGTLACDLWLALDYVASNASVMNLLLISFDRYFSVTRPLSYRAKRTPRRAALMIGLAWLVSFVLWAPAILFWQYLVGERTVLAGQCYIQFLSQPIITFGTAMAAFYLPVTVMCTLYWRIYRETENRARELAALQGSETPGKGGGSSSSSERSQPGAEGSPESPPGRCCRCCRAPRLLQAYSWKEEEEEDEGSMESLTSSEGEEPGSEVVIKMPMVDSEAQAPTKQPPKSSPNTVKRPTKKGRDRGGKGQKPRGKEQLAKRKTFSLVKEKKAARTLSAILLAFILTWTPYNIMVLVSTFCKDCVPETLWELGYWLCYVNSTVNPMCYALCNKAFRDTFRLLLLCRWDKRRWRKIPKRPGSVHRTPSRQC
UniProt Q99549: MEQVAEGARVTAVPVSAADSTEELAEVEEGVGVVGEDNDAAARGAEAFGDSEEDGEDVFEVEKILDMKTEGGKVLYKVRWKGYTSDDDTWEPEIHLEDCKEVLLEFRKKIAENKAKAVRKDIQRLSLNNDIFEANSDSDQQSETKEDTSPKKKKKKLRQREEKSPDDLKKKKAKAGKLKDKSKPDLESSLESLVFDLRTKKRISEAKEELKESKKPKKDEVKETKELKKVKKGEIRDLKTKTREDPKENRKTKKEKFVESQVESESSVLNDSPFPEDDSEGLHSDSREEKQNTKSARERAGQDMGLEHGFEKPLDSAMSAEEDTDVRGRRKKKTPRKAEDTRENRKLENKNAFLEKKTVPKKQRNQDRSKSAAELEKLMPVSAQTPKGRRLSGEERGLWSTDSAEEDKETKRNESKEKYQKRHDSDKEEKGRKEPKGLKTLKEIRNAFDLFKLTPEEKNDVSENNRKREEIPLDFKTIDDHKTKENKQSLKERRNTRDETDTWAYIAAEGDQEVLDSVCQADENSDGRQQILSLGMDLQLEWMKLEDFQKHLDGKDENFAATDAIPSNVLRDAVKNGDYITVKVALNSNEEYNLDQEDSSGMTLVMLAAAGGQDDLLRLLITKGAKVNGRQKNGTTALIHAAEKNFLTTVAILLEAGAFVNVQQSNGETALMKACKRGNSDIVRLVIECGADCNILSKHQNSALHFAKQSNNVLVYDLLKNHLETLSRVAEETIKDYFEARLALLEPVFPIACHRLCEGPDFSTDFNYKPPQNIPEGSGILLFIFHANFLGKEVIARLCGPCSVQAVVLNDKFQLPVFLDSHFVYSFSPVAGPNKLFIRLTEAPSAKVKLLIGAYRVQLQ
UniProt P83916, whole entry, looked up: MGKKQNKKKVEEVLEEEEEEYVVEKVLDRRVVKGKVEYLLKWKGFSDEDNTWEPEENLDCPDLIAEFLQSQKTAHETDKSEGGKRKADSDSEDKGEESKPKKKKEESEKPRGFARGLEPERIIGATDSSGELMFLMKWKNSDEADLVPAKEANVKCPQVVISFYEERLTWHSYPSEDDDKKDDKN
UniProt P43220, whole entry, looked up: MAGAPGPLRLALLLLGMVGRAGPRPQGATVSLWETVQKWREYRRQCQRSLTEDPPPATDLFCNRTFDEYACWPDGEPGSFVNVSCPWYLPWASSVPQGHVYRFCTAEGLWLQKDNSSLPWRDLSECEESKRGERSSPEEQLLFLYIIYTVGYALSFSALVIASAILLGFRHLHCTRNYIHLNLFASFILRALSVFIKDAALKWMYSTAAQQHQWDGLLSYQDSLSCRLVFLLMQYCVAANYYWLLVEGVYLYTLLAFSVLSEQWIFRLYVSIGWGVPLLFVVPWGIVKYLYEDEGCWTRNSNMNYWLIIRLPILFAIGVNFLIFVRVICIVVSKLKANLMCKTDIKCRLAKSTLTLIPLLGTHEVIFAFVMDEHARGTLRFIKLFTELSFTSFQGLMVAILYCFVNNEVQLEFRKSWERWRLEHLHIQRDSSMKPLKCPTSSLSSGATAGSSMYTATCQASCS
UniProt Q9BV86: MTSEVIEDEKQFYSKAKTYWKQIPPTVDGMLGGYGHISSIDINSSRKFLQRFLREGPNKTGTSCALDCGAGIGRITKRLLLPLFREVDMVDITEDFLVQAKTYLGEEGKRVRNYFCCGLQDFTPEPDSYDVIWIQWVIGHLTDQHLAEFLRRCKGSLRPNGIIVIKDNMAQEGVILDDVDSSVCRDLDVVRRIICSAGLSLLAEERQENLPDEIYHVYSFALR
UniProt P36969, whole entry, looked up: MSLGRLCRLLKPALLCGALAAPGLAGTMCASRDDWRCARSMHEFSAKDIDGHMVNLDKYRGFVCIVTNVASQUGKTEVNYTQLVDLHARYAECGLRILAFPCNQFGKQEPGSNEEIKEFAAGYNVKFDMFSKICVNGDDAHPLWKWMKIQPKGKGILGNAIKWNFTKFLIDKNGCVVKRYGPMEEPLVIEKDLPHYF

[2] = qHTS Assay for Identification of Small Molecule Agonists for Thrombopoietin (TPO) Signaling Pathway (AID 917); also: % is scaled to controls: 0 for no effect and ±100 for the full control effect
Method in brief: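 Murine Ba/F3 cells expressing human TPO receptor and GPIIb-promoter luciferase, IL-3-starved overnight, given compound plus TPO at 26 pM (EC50). After 24 h at 37 C, 5% CO2, luminescence read.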

[3] = qHTS Assay for Identification of Small Molecule Antagonists for Thrombopoietin (TPO) Signaling Pathway (AID 918); settings: TPO-dependent cell signaling reporter, antagonist mode; activity change, negative = inhibition: at 38.5 µM (top of the series)
Method in brief: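 Ba/F3 (murine, hTPO-R, GPIIb-luc reporter); overnight IL-3 withdrawal; cpd + TPO 26 pM final (EC50); 24 h 37 C/5% CO2; Steadylite luminescence after 10 min RT.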

[4] = target: Muscarinic acetylcholine receptor M1 (Rattus norvegicus) (UniProt P08482); test: qHTS Assay for Antagonists of Acetylcholine Muscarinic M1 Receptor: Kinetic Measurement of Intracellular Calcium Response (AID 943);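 also: Fluo-4 calcium signal as peak divided by basal fluorescence over 4 min; nearly all actives have a fitted effect of over 75% in size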
Method in brief: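 Rat M1-CHO cells, 2000/well, overnight → Fluo-4 no-wash dye with probenecid, 1 h 37C → compound 10 min, room temp → basal read 6 s → carbachol EC80 (100 nM) → 4 min kinetic read; peak/basal.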

[5] = target: M-phase phosphoprotein 8 (Homo sapiens) (UniProt Q99549); test: qHTS Validation Assay for Inhibitors for MPP8 Chromodomain Interactions with Methylated Histone Tails (AID 488949); settings: AlphaScreen MPP8 binding to H3K9me3 peptide; activity change, negative = inhibition: at 57.1 µM (top of the series) unless noted; also: top concentration of the series differs between compounds; % is scaled to controls: 0 for no effect and ±100 for the full control effect; nearly all actives have a fitted effect of over 55% in size
Method in brief: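 MPP8 (50 nM) was pre-bound to 50 nM biotinylated H3(1-18)K9me3 peptide in PBS pH 7.4 with 0.01% Tween-20. Compounds were then added for 30 min at room temperature, and complex disruption was read by AlphaScreen with streptavidin donor and nickel-chelate acceptor beads.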

[6] = target: Chromobox protein homolog 1 (Homo sapiens) (UniProt P83916); test: qHTS Validation Assay for Inhibitors of HP1-beta Chromodomain Interactions with Methylated Histone Tails (AID 488953);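 also: loss of AlphaScreen luminescence from HP1-beta binding biotinylated H3K9me3 peptide; % is scaled to controls: 0 for no effect and ±100 for the full control effect; nearly all actives have a fitted effect of over 50% in size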
Method in brief: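 50 nM HP1-beta + 50 nM biotin-H3(1-18)K9me3, PBS pH 7.4, 0.01% Tween-20, 30 min RT; compound added, 30 min RT; AlphaScreen beads 10 ug/mL final, 30 min dark; luminescence read.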

[7] = target: Glucagon-like peptide 1 receptor (Homo sapiens) (UniProt P43220); test: qHTS of GLP-1 Receptor Agonists: LOPAC Validation (AID 624148); settings: GLP-1R agonist cell assay; activation: at 46.1 µM (top of the series);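 also: 0% is about no effect; higher luminescence signal means agonism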
Method in brief: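 HEK293 cells stably co-expressing GLP-1R and a cAMP-responsive luciferase reporter, plated 12 hours before compound, then incubated 4-6 hr at 37 deg C. Luminescence read 12 min after detection reagent.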

[8] = target: N-terminal Xaa-Pro-Lys N-methyltransferase 1 (Homo sapiens) (UniProt Q9BV86); test: qHTS Assay for Inhibitors of N-terminal methyltransferase 1 (NTMT1): LOPAC validation of the NTMT1 SAHH-coupled ThioGlo3 Assay (AID 1347143);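 also: SAH from peptide methylation measured as thiol fluorescence via SAHH coupling and ThioGlo3; % is scaled to controls: 0 for no effect and ±100 for the full control effect; nearly all actives have a fitted effect of over 70% in size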
Method in brief: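 Recombinant human NTMT1 (125nM) was pre-incubated 1 min at room temperature with compounds over a concentration range, then a mix of 100uM SAM, 10uM SAHH and 15uM ThioGlo3 (concentrations in added reagent) was added. ThioGlo3 fluorescence (ex 340/em 450nm) after 30 min was normalized to the initial reading.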

[9] = Primary qHTS for small molecule stabilizers of the endoplasmic reticulum resident proteome: Secreted ER Calcium Modulated Protein (SERCaMP) assay (AID 1508630); settings: SH-SY5Y GLuc-SERCaMP (Gaussia luciferase released on ER calcium loss) secretion, thapsigargin, luminescence; activity change, negative = inhibition: at 38.4 µM (top of the series) unless noted; also: potency is read from the fitted curve at half-maximal effect
Method in brief: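 GLuc-SERCaMP-expressing SH-SY5Y cells, pretreated 16 h with compound, are challenged with thapsigargin to empty ER calcium stores; after 4 h, coelenterazine is added directly to the medium and luminescence is imaged.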

[10] = target: Phospholipid hydroperoxide glutathione peroxidase GPX4 (Homo sapiens) (UniProt P36969); test: Primary qHTS Assay for Inhibitors of Recombinant Selenoprotein Glutathione Peroxidase 4 (GPX4) (AID 1845192); settings: activity change, negative = inhibition: at 50 µM (top of the series) unless noted; also: % is scaled to controls: 0 for no effect and ±100 for the full control effect; nearly all actives have a fitted effect of over 65% in size
Method in brief: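 GR-coupled assay: recombinant GPX4 preincubated 30 min with compound at room temperature; final 200 nM GPX4, 1 mM GSH, 0.5 mM cumene hydroperoxide, 0.5 mM NADPH, 100 nM GR, 0.01% BSA, pH 7.5 Tris. NADPH fluorescence (340/450 nm) read at 0 and 15 min.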

[11] = Drug repurposing screens with cells derived from glioblastoma tumor samples (AID 1345199); settings: GBM patient neurospheres viability, ATP luminescence, 48 h; Potency: tumour line A unless noted; activity, negative = cell killing: at 46 µM (top of the series), tumour line A unless noted; also: nearly all actives have a fitted effect of over 40% in size; also: potency is read from the fitted curve at half-maximal effect; as to activity, negative = cell killing: % is scaled to controls: 0 for no effect and ±100 for the full control effect
Method in brief: (§1)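 Four patient lines of CD133+ GBM neurospheres were screened at several concentrations; hits were retested in those lines plus three slower-growing GBM lines, using 48-hour treatment and ATP-based viability.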

astro = test: as above; settings: viability, ATP luminescence, 48 h; activity, negative = cell killing: at 45.9 µM (top of the series) unless noted
Method in brief: as §1

[12] = P-glycoprotein substrates identified in KB-8-5-11 adenocarcinoma cell line, qHTS therapeutic library screen (AID 1346987); settings: activity change, negative = cytotoxicity: at 44.5 µM (top of the series); also: nearly all actives have a fitted effect of over 65% in size; also: potency is read from the fitted curve at half-maximal effect; as to activity change, negative = cytotoxicity: % is scaled to controls: 0 for no effect and ±100 for the full control effect
Method in brief: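 Steps: plate 500 KB-8-5-11 cells/well in DMEM + 10% FCS (colchicine removed); pin compounds in dose-response; incubate 72 h, 37 degree C, 5% CO2; add CellTiter-Glo, 5 min; read luminescence.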

CN=C(N)NCCC[C@H](N)C(=O)O
activity, negative = inhibition [1]: inconclusive: 52.3% [activator] | Potency [2]: inactive | activity change, negative = inhibition [3]: inconclusive: 0.85% [phenotype inactive] | Potency [4]: inactive | Potency [5]: inactive | Potency [6]: inactive | Potency [7]: inactive | Potency [8]: inactive | Potency [9]: inconclusive: 31.6 µM [inhibitor, partial curve, poor fit] | Potency [10]: inactive | Potency [11]: inconclusive: 1 µM [inhibitor, partial curve, poor fit] and inconclusive: 631 nM [inhibitor, full curve] | Potency (astro): inconclusive: 11.2 µM [inhibitor, partial curve]

CC(=O)N[C@@H](C=O)[C@H](O)[C@H](O)[C@@H](O)CO
Potency [12]: inconclusive: 23.1 µM [inhibitor, partial curve, poor fit] | Potency [11]: inconclusive: 35.5 µM [inhibitor, partial curve, poor fit] | Potency (astro): inactive

Nc1nc(NC2CC2)c2ncn([C@@H]3C=C[C@@H](CO)C3)c2n1
Potency [12]: inactive | Potency [11]: active: 35.5 µM | Potency (astro): inconclusive: 17.8 µM [inhibitor, partial curve]

C#C[C@]1(O)CC[C@H]2[C@@H]3CCC4=C(CCC(=O)C4)[C@H]3CC[C@@]21C
Potency [11]: inconclusive: 3.16 µM [inhibitor, partial curve] | Potency (astro): inactive

CCCCCCCCCCCCCCCC(=O)OC[C@H](COP(=O)([O-])OCC[N+](C)(C)C)OC(=O)CCCCCCCCCCCCCCC
Potency [11]: inactive

CC(=NCc1ccccc1)c1ccccc1O
Potency [11]: inconclusive: 8.91 µM [inhibitor, partial curve]

CCC(c1ccccc1)c1noc(CCN(CC)CC)n1 (stereo not drawn)
Potency [11]: inconclusive: 22.4 µM [inhibitor, partial curve]

O=C(O)c1ccccc1[O-].O=C(O)c1ccccc1[O-].[Zn+2]
Potency [11]: inconclusive: 35.5 µM [inhibitor, partial curve]

CCOc1ccc(C[C@H]2NC(=O)CCSSC[C@@H](C(=O)N3CCC[C@H]3C(=O)N[C@@H](CCCN)C(=O)NCC(N)=O)NC(=O)[C@H](CC(N)=O)NC(=O)[C@H]([C@@H](C)O)NC(=O)[C@H]([C@@H](C)CC)NC2=O)cc1 ([Mpa][dY](Et)ITNCP[Orn]G-NH2; disulfide 1-6)
Potency [11]: inconclusive: 10 µM [inhibitor, partial curve]

CO/N=C(\C(=O)N[C@@H]1C(=O)N2C(C(=O)O)=C(CSC(=O)c3ccco3)CS[C@H]12)c1csc(N)n1
Potency [11]: inconclusive: 0.0891 µM [inhibitor, full curve, poor fit]

CCOC(=O)Cc1cccc(-c2cc(CCCCCCc3ccc(O[C@H]4O[C@H](COC(C)=O)[C@@H](OC(C)=O)[C@H](OC(C)=O)[C@@H]4OC(C)=O)c(-c4cccc(CC(=O)OCC)c4)c3)ccc2O[C@H]2O[C@H](COC(C)=O)[C@@H](OC(C)=O)[C@H](OC(C)=O)[C@@H]2OC(C)=O)c1
Potency [11]: inconclusive: 3.16 µM [inhibitor, partial curve]

CCC(=O)OCC(=O)[C@@]1(OC(=O)CC)[C@@H](C)C[C@H]2[C@@H]3CCC4=CC(=O)C=C[C@]4(C)[C@@]3(Cl)[C@@H](O)C[C@@]21C
Potency [11]: active: 10 µM | Potency (astro): inactive

NCCC(=O)[N-][C@@H](Cc1cnc[nH]1)C(=O)O.[Zn]
Potency [11]: inconclusive: 35.5 µM [inhibitor, single point]

C[C@@H]1NC(=O)[C@@H](N)CNC(=O)[C@H](C2CCNC(N)=N2)NC(=O)/C(=C/NC(N)=O)NC(=O)[C@H](CNC(=O)C[C@@H](N)CCCN)NC1=O (stereo partly drawn)
Potency [11]: inconclusive: 35.5 µM [inhibitor, single point] and inconclusive: 15.8 µM [inhibitor, partial curve] | Potency (astro): inactive

O.O=C([O-])CC([S-])C(=O)[O-].[Au+].[Na+].[Na+] (stereo not drawn)
Potency [11]: inconclusive: 7.08 µM [inhibitor, full curve, poor fit]

Reference: PubChem BioAssay (NCATS)
